# The list shows a part of the results.
# Assays:
# Assay in all cases: glycan array binding signal (z-score within array); higher = stronger binding
# Conditions in all cases: glycan notation: IUPAC condensed, linker removed
# [1] = molecular target: Gal(b1-4)GlcNAc(b1-3)Gal(b1-4)GlcNAc(b1-2)Man(a1-3)[Gal(b1-4)GlcNAc(b1-3)Gal(b1-4)GlcNAc(b1-2)Man(a1-6)]Man(b1-4)GlcNAc(b1-4)[Fuc(a1-6)]GlcNAc
# Outline: (§1)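 Glycan array data were curated from 3228 arrays in the Consortium for Functional Glycomics database and kept only where the protein sequence was available. Glycan names were converted to IUPAC-condensed notation, and columns mapping to the same glycan were averaged. The binding signal is a within-array Z-score, averaged across arrays of the same protein sequence at different concentrations or buffers and across linkers. Negative Z-scores can be read as non-binding.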
# [2] = molecular target: Gal(b1-4)GlcNAc(b1-3)Gal(b1-4)GlcNAc(b1-2)[Gal(b1-4)GlcNAc(b1-3)Gal(b1-4)GlcNAc(b1-6)]Man(a1-6)[Gal(b1-4)GlcNAc(b1-3)Gal(b1-4)GlcNAc(b1-2)Man(a1-3)]Man(b1-4)GlcNAc(b1-4)GlcNAc
# Outline: as §1
# [3] = molecular target: Gal(b1-4)GlcNAc(b1-3)Gal(b1-4)GlcNAc(b1-2)[Gal(b1-4)GlcNAc(b1-3)Gal(b1-4)GlcNAc(b1-6)]Man(a1-6)[Gal(b1-4)GlcNAc(b1-3)Gal(b1-4)GlcNAc(b1-2)Man(a1-3)]Man(b1-4)GlcNAc(b1-4)[Fuc(a1-6)]GlcNAc
# Outline: as §1
# [4] = molecular target: Gal(b1-4)GlcNAc(b1-3)Gal(b1-4)GlcNAc(b1-3)Gal(b1-4)GlcNAc
# Outline: as §1
# [5] = molecular target: Gal(b1-4)GlcNAc(b1-3)Gal(b1-4)GlcNAc(b1-3)Gal(b1-4)GlcNAc(b1-2)Man(a1-3)[Gal(b1-4)GlcNAc(b1-3)Gal(b1-4)GlcNAc(b1-3)Gal(b1-4)GlcNAc(b1-2)Man(a1-6)]Man(b1-4)GlcNAc(b1-4)GlcNAc
# Outline: as §1
# [6] = molecular target: Gal(b1-4)GlcNAc(b1-3)Gal(b1-4)GlcNAc(b1-3)Gal(b1-4)GlcNAc(b1-2)Man(a1-3)[Gal(b1-4)GlcNAc(b1-3)Gal(b1-4)GlcNAc(b1-3)Gal(b1-4)GlcNAc(b1-2)Man(a1-6)]Man(b1-4)GlcNAc(b1-4)[Fuc(a1-6)]GlcNAc
# Outline: as §1
# [7] = molecular target: Gal(b1-4)GlcNAc(b1-3)Gal(b1-4)GlcNAc(b1-3)Gal(b1-4)GlcNAc(b1-2)[Gal(b1-4)GlcNAc(b1-3)Gal(b1-4)GlcNAc(b1-3)Gal(b1-4)GlcNAc(b1-6)]Man(a1-6)[Gal(b1-4)GlcNAc(b1-3)Gal(b1-4)GlcNAc(b1-3)Gal(b1-4)GlcNAc(b1-2)Man(a1-3)]Man(b1-4)GlcNAc(b1-4)[Fuc(a1-6)]GlcNAc
# Outline: as §1
# [8] = molecular target: Gal(b1-4)GlcNAc(b1-3)Gal(b1-4)GlcNAc(b1-3)Gal(b1-4)GlcNAc(b1-3)Gal(b1-4)GlcNAc(b1-2)Man(a1-3)[Gal(b1-4)GlcNAc(b1-3)Gal(b1-4)GlcNAc(b1-3)Gal(b1-4)GlcNAc(b1-3)Gal(b1-4)GlcNAc(b1-2)Man(a1-6)]Man(b1-4)GlcNAc(b1-4)GlcNAc
# Outline: as §1
# [9] = molecular target: Gal(b1-4)GlcNAc(b1-3)Gal(b1-4)GlcNAc(b1-3)Gal(b1-4)GlcNAc(b1-3)Gal(b1-4)GlcNAc(b1-2)Man(a1-3)[Gal(b1-4)GlcNAc(b1-3)Gal(b1-4)GlcNAc(b1-3)Gal(b1-4)GlcNAc(b1-3)Gal(b1-4)GlcNAc(b1-2)Man(a1-6)]Man(b1-4)GlcNAc(b1-4)[Fuc(a1-6)]GlcNAc
# Outline: as §1
# [10] = molecular target: Gal(b1-4)GlcNAc(b1-3)Gal(b1-4)GlcNAc(b1-3)Gal(b1-4)GlcNAc(b1-3)Gal(b1-4)GlcNAc(b1-2)[Gal(b1-4)GlcNAc(b1-3)Gal(b1-4)GlcNAc(b1-3)Gal(b1-4)GlcNAc(b1-3)Gal(b1-4)GlcNAc(b1-6)]Man(a1-6)[Gal(b1-4)GlcNAc(b1-3)Gal(b1-4)GlcNAc(b1-3)Gal(b1-4)GlcNAc(b1-3)Gal(b1-4)GlcNAc(b1-2)Man(a1-3)]Man(b1-4)GlcNAc(b1-4)[Fuc(a1-6)]GlcNAc
# Outline: as §1
# [11] = molecular target: Gal(b1-4)GlcNAc(b1-3)Gal(b1-4)GlcNAc(b1-3)Gal(b1-4)GlcNAc(b1-3)Gal(b1-4)GlcNAc(b1-3)Gal(b1-4)GlcNAc(b1-2)Man(a1-3)[Gal(b1-4)GlcNAc(b1-3)Gal(b1-4)GlcNAc(b1-3)Gal(b1-4)GlcNAc(b1-3)Gal(b1-4)GlcNAc(b1-3)Gal(b1-4)GlcNAc(b1-2)Man(a1-6)]Man(b1-4)GlcNAc(b1-4)GlcNAc
# Outline: as §1
# [12] = molecular target: Gal(b1-4)GlcNAc(b1-3)Gal(b1-4)GlcNAc(b1-3)Gal(b1-4)GlcNAc(b1-3)Gal(b1-4)GlcNAc(b1-3)Gal(b1-4)GlcNAc(b1-2)Man(a1-3)[Gal(b1-4)GlcNAc(b1-3)Gal(b1-4)GlcNAc(b1-3)Gal(b1-4)GlcNAc(b1-3)Gal(b1-4)GlcNAc(b1-3)Gal(b1-4)GlcNAc(b1-2)Man(a1-6)]Man(b1-4)GlcNAc(b1-4)[Fuc(a1-6)]GlcNAc
# Outline: as §1
# [13] = molecular target: Gal(b1-4)GlcNAc(b1-3)Gal(b1-4)GlcNAc(b1-3)Gal(b1-4)GlcNAc(b1-3)Gal(b1-4)GlcNAc(b1-3)Gal(b1-4)GlcNAc(b1-2)[Gal(b1-4)GlcNAc(b1-3)Gal(b1-4)GlcNAc(b1-3)Gal(b1-4)GlcNAc(b1-3)Gal(b1-4)GlcNAc(b1-3)Gal(b1-4)GlcNAc(b1-6)]Man(a1-6)[Gal(b1-4)GlcNAc(b1-3)Gal(b1-4)GlcNAc(b1-3)Gal(b1-4)GlcNAc(b1-3)Gal(b1-4)GlcNAc(b1-3)Gal(b1-4)GlcNAc(b1-2)Man(a1-3)]Man(b1-4)GlcNAc(b1-4)[Fuc(a1-6)]GlcNAc
# Outline: as §1
# [14] = molecular target: Gal(b1-4)GlcNAc(b1-3)Gal(b1-4)GlcNAc(b1-3)Gal(b1-4)GlcNAc(b1-3)Gal(b1-4)GlcNAc(b1-3)Gal(b1-4)GlcNAc(b1-3)Gal(b1-4)GlcNAc(b1-2)Man(a1-3)[Gal(b1-4)GlcNAc(b1-3)Gal(b1-4)GlcNAc(b1-3)Gal(b1-4)GlcNAc(b1-3)Gal(b1-4)GlcNAc(b1-3)Gal(b1-4)GlcNAc(b1-3)Gal(b1-4)GlcNAc(b1-2)Man(a1-6)]Man(b1-4)GlcNAc(b1-4)GlcNAc
# Outline: as §1
# [15] = molecular target: Gal(b1-4)GlcNAc(b1-3)Gal(b1-4)GlcNAc(b1-3)GalNAc
# Outline: as §1
# [16] = molecular target: Gal(b1-4)GlcNAc(b1-3)Gal(b1-4)GlcNAc(b1-3)[Gal(b1-4)GlcNAc(b1-3)Gal(b1-4)GlcNAc(b1-6)]GalNAc
# Outline: as §1
# [17] = molecular target: Gal(b1-4)GlcNAc(b1-3)Gal(b1-4)GlcNAc(b1-6)[Gal(b1-3)]GalNAc
# Outline: as §1
# [18] = molecular target: Gal(b1-4)GlcNAc(b1-3)Gal(b1-4)[Fuc(a1-3)]GlcNAc(b1-3)Gal(b1-4)[Fuc(a1-3)]GlcNAc
# Outline: as §1
# [19] = molecular target: Gal(b1-4)GlcNAc(b1-3)GalNAc
# Outline: as §1
# [20] = molecular target: Gal(b1-4)GlcNAc(b1-3)[Fuc(a1-3)GlcNAc(b1-6)]Gal(b1-4)Glc
# Outline: as §1
# [21] = molecular target: Gal(b1-4)GlcNAc(b1-3)[Gal(b1-4)GlcNAc(b1-6)]Gal(b1-4)GlcNAc
# Outline: as §1
# [22] = molecular target: Gal(b1-4)GlcNAc(b1-3)[GlcNAc(b1-6)]Gal(b1-4)GlcNAc
# Outline: as §1
binder,measurement,setting,value
"pTFF2 (Sus scrofa), P01359 (protein) KPAACRCSRQDPKNRVNCGFPGITSDQCFTSGCCFDSQVPGVPWCFKPLPAQESEECVMEVSARKNCGYPGISPEDCAARNCCFSDTIPEVPWCFFPMSVEACHY",glycan array binding signal (z-score),[1],0.737
same,glycan array binding signal (z-score),[2],0.213
same,glycan array binding signal (z-score),[3],0.346
same,glycan array binding signal (z-score),[4],0.696
same,glycan array binding signal (z-score),[5],0.452
same,glycan array binding signal (z-score),[6],1.42
same,glycan array binding signal (z-score),[7],0.478
same,glycan array binding signal (z-score),[8],0.985
same,glycan array binding signal (z-score),[9],1.85
same,glycan array binding signal (z-score),[10],-0.245
same,glycan array binding signal (z-score),[11],2.48
same,glycan array binding signal (z-score),[12],2.62
same,glycan array binding signal (z-score),[13],-0.433
same,glycan array binding signal (z-score),[14],-0.498
same,glycan array binding signal (z-score),[15],-0.711
same,glycan array binding signal (z-score),[16],0.771
same,glycan array binding signal (z-score),[17],0.298
same,glycan array binding signal (z-score),[18],1.09
same,glycan array binding signal (z-score),[19],-0.029
same,glycan array binding signal (z-score),[20],-0.361
same,glycan array binding signal (z-score),[21],-0.434
same,glycan array binding signal (z-score),[22],-0.548

# Random excerpt: 2 records from the list
binder,measurement,setting,value
"pTFF2 (Sus scrofa), P01359 (protein) KPAACRCSRQDPKNRVNCGFPGITSDQCFTSGCCFDSQVPGVPWCFKPLPAQESEECVMEVSARKNCGYPGISPEDCAARNCCFSDTIPEVPWCFFPMSVEACHY",glycan array binding signal (z-score),[13],-0.433
same,glycan array binding signal (z-score),[15],-0.711

# Source: the supplement of paper PMC8728848
